{"source": "patent US9175090B2", "about": "“Methods of using an antibody to inhibit WNT-mediated signaling in cancer” (Vanderbilt University, priority 2011, dated 2015)", "key": {"[1]": {"test_system": "male C57Bl/6 mice with myocardial infarct", "text": "FIGS. 5A-D. Mouse MI model. Representative mouse EKG tracings pre (FIG. 5A) and post (FIG. 5B) coronary artery ligation. […] Arrows mark lateral and posterior left ventricle (LV). LVIDD, LVIDS=LV internal diameter at systole and […], respectively. RV=right ventricle. […] Cardiac dimensions were obtained from 2-D guided M-mode images (100 frames/sec) and were read blinded using short axis and a parasternal long-axis views with the leading edge method. All echo measurements were averaged over 3 consecutive beats on unsedated mice at 7 and 30 days after infarction. Statistical significance assessed by the Wilcoxon rank sum test.\n(§1) Myocardial infarcts were induced in male C57Bl/6 mice by coronary ligation (FIG. 5) as previously described (Alfaro et al., 2008).\nVentricular remodeling and cardiac functional parameters will be assessed by echo.\nMammalian cardiomyocytes irreversibly withdraw from the cell cycle soon after birth and undergo terminal differentiation. […] Therefore, cardiac injury causes permanent myocardial loss and cardiac dysfunction. […] Proliferation was assessed by immunostaining for Ki-67. […] Phosphorylation of histone 3 (pH3) on Ser 10 is an established cellular marker for chromosome condensation during mitotic prophase (van Amerongen and Engel, 2008)."}, "[2]": {"test_system": "mice", "details": "IV or IP, levels high enough for Wnt-inhibitory plasma levels", "text": "as §1"}}, "data": [{"smiles": "Cc1cc(/C=C/c2ccc3cc(N(C)C)ccc3[n+]2C)c(C)n1-c1ccccc1", "note": "[pyrvinium]", "values": [{"measurement": "LVIDD, LVIDS, IVSS, IVSD percentage difference days 7 to 30, compared to Cmpd 211", "setting": "[1]; echo, single 200 nM injection", "result": "smaller"}, {"measurement": "Mice with lethal toxicity, died within the first 24 hours", "setting": "[1]; male, mouse, in vivo", "result": 15, "unit": "mice"}, {"measurement": "Time to death in most mice", "setting": "[2]", "result": "24 to 48", "unit": "h"}]}]}
